Reference: publication PMC5342438
Results are given in words; binding and its absence hold for the method and conditions named. Binding seen in cells or lysates may run through a third protein. Some entries that bind do so weakly or less than the wild type.

Protein sequences, listed by entry. Tags and fused reporters are not part of them.
UniProt P08134: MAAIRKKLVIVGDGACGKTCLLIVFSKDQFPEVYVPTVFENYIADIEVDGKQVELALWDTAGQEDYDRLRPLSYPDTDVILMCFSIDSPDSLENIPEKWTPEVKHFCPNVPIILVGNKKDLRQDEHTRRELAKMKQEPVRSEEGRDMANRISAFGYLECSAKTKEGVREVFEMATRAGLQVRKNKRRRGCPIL
UniProt Q9HCM4: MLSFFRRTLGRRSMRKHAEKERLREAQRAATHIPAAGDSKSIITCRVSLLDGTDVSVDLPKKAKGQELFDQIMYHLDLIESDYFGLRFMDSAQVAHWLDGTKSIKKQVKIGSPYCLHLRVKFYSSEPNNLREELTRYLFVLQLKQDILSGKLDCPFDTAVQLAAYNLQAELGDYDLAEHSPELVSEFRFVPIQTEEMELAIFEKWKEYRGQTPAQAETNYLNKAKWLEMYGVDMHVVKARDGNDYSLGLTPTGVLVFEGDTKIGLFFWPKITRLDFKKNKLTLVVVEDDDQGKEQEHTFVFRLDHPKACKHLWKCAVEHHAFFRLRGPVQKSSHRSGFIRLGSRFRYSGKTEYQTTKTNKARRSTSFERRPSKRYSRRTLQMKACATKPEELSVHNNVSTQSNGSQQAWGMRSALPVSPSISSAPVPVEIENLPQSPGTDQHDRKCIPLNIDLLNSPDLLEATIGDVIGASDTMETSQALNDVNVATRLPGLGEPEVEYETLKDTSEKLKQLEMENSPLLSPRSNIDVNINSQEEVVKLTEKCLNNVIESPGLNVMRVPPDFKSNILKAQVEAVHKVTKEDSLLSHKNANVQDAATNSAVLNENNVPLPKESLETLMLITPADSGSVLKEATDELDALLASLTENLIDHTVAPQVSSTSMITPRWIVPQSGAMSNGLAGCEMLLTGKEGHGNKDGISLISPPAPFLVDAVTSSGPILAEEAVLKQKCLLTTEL

Biological target: RhoC (human (endogenous in HCCLM3 and MHCC97-H)) (UniProt P08134)
Experiment: co-IP; lysates of HCCLM3 and MHCC97-H cells in 1% NP-40, 0.5% deoxycholate and SDS; precipitated with anti-YMO1 antibody (overnight, 4°C, protein A-Sepharose) or anti-RhoC antibody, rabbit IgG as control; western blot

binding: binds
Substance: Yurt/Mosaic eyes-like 1 (YMO1) (from UniProt Q9HCM4 1-733)
